Some results were stated once for a whole list of compounds, not compound by compound. At least one compound was matched to its structure with a doubt left.
Test system: ganglioside-bound sialic acid in corpus callosum and cerebellum
Assay: Ganglioside-bound sialic acid in brain regions of suckling pigs fed sialyllactose diets (periodic acid-resorcinol reaction)
Assay type: in vivo
Settings: diet supplemented with 2 g/L, fed 21 days
From the text: This study sought to determine whether administration of certain isomers of sialyllactose could increase or enrich sialic acid in the brain tissues of neonatal pigs. Indeed, accumulation of sialic acid in the brain during neonatal development is associated with increased cognitive functioning. Further, sialic acid (SA) is a key component of human milk oligosaccharides and neural tissues. SA accumulates in the brain rapidly during neonatal development and is thought to play an important role in brain development. […] Piglets readily consumed the formula, grew at normal rates and remained clinically healthy throughout the experiment.
After 21 days, the pigs were euthanized and the left hemisphere of the brain was dissected into cerebrum, cerebellum, corpus callosum, and hippocampus regions. […] The lipid- and protein-bound sialic acid contents from each sample were determined using a modified periodic acid-resorcinol reaction. Free sialic acid was calculated by difference. Briefly, the sialic from the protein and ganglioside fractions was first oxidized using the periodic acid reagent, which released the oxidized sialic-aldehyde derivative quantitatively. The released sialic derivative was measured colorimetrically using the resorcinol-HCl reagent.

Compound	increase of ganglioside-bound sialic acid in the corpus callosum compared to pigs fed the control diet
CC(=O)N[C@H]1[C@H]([C@H](O)[C@H](O)CO)O[C@@](O[C@H]2[C@@H](O)[C@@H](CO)O[C@@H](O[C@H]3[C@H](O)[C@@H](O)C(O)O[C@@H]3CO)[C@@H]2O)(C(=O)O)C[C@@H]1O (some centres unmarked) [3′-sialyllactose]	over 15%
CC(=O)N[C@H]1[C@H]([C@H](O)[C@H](O)CO)O[C@@](OC[C@H]2O[C@@H](O[C@H]3[C@H](O)[C@@H](O)[C@H](O)O[C@@H]3CO)[C@H](O)[C@@H](O)[C@H]2O)(C(=O)O)C[C@@H]1O [6′-sialyllactose]	over 15%

From patent publication US20180064739A1, “NUTRITIONAL COMPOSITION WITH HUMAN MILK OLIGOSACCHARIDES AND USES THEREOF” (Mead Johnson Nutrition Company, priority 2016, published 2018)
